Our source for the NP40-soluble protein abundance values is the supplement of paper PMC6411743.

By UniProt entry, the sequences of proteins in these tests, tags left out. Where a name states a change or a piece, a line headed by the entry shows the natural chain unless it says otherwise.
UniProt Q9UFW8: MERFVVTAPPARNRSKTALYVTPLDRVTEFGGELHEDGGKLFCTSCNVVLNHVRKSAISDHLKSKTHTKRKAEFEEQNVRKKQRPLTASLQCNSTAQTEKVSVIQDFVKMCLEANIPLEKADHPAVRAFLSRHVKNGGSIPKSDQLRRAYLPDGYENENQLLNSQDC
UniProt Q9P2R6: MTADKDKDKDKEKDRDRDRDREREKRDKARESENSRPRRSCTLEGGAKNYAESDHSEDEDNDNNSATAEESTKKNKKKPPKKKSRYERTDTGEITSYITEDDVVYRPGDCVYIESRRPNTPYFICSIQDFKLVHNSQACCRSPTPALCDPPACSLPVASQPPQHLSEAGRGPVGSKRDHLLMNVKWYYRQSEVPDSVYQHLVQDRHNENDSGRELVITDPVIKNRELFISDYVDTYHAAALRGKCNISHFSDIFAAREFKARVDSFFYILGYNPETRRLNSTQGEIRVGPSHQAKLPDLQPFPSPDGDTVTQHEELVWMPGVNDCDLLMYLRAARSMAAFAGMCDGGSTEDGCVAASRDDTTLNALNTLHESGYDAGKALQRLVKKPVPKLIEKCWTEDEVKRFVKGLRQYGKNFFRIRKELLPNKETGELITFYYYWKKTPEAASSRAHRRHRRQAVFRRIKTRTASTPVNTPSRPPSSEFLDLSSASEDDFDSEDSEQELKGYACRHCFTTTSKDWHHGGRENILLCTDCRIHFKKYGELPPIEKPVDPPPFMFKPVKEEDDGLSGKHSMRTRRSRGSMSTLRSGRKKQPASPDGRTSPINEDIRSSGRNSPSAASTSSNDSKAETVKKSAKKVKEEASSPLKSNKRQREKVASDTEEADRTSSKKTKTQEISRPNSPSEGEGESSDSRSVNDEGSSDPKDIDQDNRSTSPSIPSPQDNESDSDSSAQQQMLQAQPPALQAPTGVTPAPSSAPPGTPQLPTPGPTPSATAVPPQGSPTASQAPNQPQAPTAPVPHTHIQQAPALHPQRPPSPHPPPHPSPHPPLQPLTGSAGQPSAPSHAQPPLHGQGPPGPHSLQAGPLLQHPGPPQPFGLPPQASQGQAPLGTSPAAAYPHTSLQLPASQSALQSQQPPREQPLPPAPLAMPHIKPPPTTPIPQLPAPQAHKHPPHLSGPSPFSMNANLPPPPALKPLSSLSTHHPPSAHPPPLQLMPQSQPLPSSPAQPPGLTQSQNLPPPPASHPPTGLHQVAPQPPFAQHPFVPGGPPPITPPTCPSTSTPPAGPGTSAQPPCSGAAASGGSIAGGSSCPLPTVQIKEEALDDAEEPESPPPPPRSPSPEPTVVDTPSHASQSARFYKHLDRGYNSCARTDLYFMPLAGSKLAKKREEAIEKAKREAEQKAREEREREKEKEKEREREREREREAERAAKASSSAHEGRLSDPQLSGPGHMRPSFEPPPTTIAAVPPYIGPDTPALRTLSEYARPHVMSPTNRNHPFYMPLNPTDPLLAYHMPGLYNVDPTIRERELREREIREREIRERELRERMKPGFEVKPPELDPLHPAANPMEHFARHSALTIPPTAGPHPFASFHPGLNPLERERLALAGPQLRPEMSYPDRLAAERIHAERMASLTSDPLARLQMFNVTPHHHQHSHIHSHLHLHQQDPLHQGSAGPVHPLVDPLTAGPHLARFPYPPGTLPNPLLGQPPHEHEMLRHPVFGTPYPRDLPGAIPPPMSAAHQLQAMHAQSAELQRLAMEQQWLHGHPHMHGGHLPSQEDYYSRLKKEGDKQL
UniProt Q9UBV8: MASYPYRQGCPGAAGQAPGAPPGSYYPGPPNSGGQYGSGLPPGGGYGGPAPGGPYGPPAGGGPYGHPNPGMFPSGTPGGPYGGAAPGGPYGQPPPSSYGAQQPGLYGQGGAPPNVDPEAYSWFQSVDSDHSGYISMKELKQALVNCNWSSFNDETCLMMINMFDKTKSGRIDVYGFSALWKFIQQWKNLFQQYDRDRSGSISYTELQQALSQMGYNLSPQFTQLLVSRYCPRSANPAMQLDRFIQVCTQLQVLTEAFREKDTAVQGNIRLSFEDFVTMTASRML
UniProt Q9UBQ7: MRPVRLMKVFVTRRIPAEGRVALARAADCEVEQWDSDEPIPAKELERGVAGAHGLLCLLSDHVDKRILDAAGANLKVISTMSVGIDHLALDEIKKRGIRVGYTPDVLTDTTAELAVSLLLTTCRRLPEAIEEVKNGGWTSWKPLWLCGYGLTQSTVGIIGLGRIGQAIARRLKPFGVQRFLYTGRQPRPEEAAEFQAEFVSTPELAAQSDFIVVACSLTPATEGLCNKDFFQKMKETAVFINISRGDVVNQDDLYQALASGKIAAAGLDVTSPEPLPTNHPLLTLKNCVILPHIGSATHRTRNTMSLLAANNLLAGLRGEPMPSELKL
UniProt Q9UGU0: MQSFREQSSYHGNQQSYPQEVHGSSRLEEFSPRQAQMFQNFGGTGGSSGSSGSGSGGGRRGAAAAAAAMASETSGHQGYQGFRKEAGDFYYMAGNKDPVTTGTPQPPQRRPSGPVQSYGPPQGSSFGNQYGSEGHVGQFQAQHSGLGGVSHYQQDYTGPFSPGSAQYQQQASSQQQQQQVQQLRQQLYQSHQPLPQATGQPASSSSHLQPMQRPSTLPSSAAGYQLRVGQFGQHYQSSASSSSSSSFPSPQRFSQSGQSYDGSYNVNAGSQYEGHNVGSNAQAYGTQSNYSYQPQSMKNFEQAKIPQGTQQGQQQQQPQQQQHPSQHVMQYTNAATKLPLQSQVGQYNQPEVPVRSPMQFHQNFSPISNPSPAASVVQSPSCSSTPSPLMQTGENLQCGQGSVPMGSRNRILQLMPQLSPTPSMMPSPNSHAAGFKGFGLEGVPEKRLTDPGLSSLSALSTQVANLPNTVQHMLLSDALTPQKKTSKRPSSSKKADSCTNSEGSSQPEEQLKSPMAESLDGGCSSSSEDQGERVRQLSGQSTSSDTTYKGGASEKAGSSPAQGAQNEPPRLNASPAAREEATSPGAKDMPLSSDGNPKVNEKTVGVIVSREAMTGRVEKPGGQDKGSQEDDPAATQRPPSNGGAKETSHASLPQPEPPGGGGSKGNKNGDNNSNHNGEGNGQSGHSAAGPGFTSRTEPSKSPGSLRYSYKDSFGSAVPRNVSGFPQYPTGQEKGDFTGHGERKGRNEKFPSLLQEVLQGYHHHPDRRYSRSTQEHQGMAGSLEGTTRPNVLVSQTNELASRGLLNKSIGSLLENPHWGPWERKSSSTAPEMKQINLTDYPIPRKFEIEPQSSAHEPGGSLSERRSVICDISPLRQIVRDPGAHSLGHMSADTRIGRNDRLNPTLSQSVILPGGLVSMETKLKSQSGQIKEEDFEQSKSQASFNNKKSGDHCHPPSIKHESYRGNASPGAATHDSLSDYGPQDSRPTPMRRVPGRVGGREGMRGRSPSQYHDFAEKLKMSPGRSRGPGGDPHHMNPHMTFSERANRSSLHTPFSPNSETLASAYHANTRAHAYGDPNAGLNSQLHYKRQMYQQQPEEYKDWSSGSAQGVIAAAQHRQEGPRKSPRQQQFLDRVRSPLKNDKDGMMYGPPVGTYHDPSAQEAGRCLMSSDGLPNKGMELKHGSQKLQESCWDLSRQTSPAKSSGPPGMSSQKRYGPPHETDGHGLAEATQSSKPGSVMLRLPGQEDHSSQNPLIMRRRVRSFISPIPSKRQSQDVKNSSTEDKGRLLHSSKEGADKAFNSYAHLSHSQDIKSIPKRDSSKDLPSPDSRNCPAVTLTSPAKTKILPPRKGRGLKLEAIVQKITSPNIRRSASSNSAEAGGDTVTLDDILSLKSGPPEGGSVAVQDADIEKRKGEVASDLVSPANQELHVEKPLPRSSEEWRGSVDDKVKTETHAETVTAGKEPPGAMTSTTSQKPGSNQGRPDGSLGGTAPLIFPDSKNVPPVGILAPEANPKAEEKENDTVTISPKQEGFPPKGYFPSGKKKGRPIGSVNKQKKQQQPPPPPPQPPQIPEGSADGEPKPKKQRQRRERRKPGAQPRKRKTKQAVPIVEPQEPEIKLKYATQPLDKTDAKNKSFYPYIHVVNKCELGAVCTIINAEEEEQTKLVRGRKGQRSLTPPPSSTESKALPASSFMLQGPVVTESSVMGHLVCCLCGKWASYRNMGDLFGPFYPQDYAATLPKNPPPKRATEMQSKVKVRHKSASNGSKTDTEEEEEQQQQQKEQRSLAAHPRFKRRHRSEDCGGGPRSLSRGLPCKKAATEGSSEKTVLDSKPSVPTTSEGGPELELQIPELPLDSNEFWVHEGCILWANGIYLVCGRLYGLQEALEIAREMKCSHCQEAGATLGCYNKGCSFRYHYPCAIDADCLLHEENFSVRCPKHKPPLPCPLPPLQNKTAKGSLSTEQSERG
UniProt Q9UL40: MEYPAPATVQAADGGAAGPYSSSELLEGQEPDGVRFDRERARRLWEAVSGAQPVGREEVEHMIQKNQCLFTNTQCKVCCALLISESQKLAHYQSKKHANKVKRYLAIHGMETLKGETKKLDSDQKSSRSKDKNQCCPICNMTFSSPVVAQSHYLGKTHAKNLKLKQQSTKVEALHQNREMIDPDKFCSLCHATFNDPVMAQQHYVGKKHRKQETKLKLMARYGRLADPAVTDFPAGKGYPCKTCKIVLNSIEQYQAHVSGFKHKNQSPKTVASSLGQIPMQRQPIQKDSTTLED
UniProt Q9UJX2, whole entry: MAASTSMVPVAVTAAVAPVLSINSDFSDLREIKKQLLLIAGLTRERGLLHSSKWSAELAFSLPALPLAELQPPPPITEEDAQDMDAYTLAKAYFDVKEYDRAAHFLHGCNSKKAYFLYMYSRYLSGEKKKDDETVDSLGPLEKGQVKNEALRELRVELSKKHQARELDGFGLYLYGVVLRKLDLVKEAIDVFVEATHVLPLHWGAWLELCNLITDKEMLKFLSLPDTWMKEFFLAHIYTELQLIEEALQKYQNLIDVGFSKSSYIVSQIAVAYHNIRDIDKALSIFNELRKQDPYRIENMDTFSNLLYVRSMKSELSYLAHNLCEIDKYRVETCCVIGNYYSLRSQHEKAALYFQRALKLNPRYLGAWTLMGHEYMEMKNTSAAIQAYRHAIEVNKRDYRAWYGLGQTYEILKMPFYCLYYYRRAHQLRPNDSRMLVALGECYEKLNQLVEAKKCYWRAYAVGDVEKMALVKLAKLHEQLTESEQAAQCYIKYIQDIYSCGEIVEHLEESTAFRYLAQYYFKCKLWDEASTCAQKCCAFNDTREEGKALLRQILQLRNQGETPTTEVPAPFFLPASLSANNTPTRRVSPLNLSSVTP
UniProt Q9UNZ2: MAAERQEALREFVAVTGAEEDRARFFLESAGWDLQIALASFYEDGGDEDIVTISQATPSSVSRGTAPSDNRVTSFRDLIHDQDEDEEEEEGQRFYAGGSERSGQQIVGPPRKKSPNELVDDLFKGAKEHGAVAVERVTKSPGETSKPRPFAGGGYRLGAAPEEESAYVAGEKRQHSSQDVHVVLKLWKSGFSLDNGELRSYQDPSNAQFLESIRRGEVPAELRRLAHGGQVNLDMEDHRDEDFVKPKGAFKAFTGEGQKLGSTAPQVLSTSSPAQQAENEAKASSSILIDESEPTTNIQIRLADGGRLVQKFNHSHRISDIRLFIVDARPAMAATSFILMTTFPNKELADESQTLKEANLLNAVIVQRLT
UniProt Q9Y296, whole entry: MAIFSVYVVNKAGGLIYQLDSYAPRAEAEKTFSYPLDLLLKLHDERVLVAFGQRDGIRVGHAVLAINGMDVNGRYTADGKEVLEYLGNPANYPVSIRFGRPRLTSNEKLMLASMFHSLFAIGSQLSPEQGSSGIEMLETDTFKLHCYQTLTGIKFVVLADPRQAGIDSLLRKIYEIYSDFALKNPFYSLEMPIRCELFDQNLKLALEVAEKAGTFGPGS
UniProt Q9UHY7: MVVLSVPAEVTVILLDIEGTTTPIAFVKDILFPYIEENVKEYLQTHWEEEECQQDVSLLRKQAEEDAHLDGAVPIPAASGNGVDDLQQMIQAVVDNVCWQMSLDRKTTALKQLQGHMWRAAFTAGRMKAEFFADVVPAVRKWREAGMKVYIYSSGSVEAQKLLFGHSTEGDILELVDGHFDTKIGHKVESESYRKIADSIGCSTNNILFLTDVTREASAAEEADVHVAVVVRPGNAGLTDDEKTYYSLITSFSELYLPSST
UniProt Q9UHC7: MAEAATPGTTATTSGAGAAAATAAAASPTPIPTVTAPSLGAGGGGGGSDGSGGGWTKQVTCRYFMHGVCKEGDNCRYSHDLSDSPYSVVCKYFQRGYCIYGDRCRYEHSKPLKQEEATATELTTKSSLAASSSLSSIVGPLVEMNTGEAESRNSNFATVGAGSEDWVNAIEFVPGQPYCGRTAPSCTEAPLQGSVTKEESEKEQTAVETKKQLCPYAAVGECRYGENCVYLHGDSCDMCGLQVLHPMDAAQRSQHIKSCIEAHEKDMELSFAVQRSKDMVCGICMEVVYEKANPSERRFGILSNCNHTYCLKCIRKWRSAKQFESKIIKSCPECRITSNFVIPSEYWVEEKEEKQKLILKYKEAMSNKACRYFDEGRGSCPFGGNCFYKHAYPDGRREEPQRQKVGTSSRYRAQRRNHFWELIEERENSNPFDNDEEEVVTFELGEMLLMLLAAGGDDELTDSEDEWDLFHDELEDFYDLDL

Compound in the test: Nc1ncnc2c1ncn2[C@@H]1O[C@H](COP(=O)(O)OP(=O)(O)OP(=O)(O)O)[C@@H](O)[C@H]1O [adenosine triphosphate]
As to the kind of experiment: NP40-soluble protein abundance relative to vehicle (solubility fold change) (ratio); higher = more soluble protein in presence of ATP. The essentials: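 Data come from three independent experiments in which Dounce-homogenised Jurkat crude lysate was treated at eight concentrations from 0.1 to 10 mM. Treatment ran 10 min at room temperature and then 3 min at 37 °C, after which 0.8% NP40 and benzonase were added for 60 min at 4 °C before ultracentrifugation. The supernatant underwent TMT labelling and LC-MS/MS, and vsn-normalised intensities were expressed as fold change against the detergent-processed vehicle in each replicate.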

± gives the standard deviation of the averaged measurements. The entries are a selection whose mix differs from that of the whole data set.

Turning to CGGBP1 (UniProt Q9UFW8), the NP40-soluble protein abundance reads like this: (concentration: 1mM) 1.03 ± 0.071; (concentration: 2mM) 1.04 ± 0.051; (concentration: 4mM) 1.03 ± 0.041; (concentration: 6mM) 1.1 ± 0.042; (concentration: 8mM) 1.09 ± 0.014; (concentration: 10mM) 1.03 ± 0.077.

As to RERE (UniProt Q9P2R6), the NP40-soluble protein abundance (concentration: 1mM) came to 0.95 ± 0.049; the NP40-soluble protein abundance (concentration: 2mM) worked out at 0.953 ± 0.038; the NP40-soluble protein abundance (concentration: 4mM) is 0.984 ± 0.046; the NP40-soluble protein abundance (concentration: 6mM) was 0.967 ± 0.022; the NP40-soluble protein abundance (concentration: 8mM) turned out to be 0.946 ± 0.05; the NP40-soluble protein abundance (concentration: 10mM) came to 0.933 ± 0.05.

PEF1 (UniProt Q9UBV8): the NP40-soluble protein abundance came out at 0.843 ± 0.054 (concentration: 1mM); 0.912 ± 0.051 (concentration: 2mM); 0.872 ± 0.018 (concentration: 4mM); 0.855 ± 0.069 (concentration: 6mM); 0.874 ± 0.031 (concentration: 8mM); 0.819 ± 0.11 (concentration: 10mM).

Take GRHPR (UniProt Q9UBQ7): the NP40-soluble protein abundance (concentration: 1mM) is 0.979 ± 0.073; the NP40-soluble protein abundance (concentration: 2mM) turned out to be 0.974 ± 0.073; the NP40-soluble protein abundance (concentration: 4mM) is 0.964 ± 0.059; the NP40-soluble protein abundance (concentration: 6mM) stood at 0.914 ± 0.096; the NP40-soluble protein abundance (concentration: 8mM) came out at 0.972 ± 0.076; the NP40-soluble protein abundance (concentration: 10mM) was 0.965 ± 0.052.

As to UniProt Q9UBS9 and related entries, the NP40-soluble protein abundance was 0.986 ± 0.099 (concentration: 1mM); 0.93 ± 0.12 (concentration: 2mM); 0.957 ± 0.17 (concentration: 4mM); 0.999 ± 0.14 (concentration: 6mM); 0.929 ± 0.19 (concentration: 8mM); 0.953 ± 0.1 (concentration: 10mM).

With UniProt Q9UGU0 and related entries, the NP40-soluble protein abundance reads like this: (concentration: 1mM) 1.09 ± 0.056; (concentration: 2mM) 1.13 ± 0.093; (concentration: 4mM) 1.19 ± 0.042; (concentration: 6mM) 1.29 ± 0.087; (concentration: 8mM) 1.32 ± 0.067; (concentration: 10mM) 1.44 ± 0.086.

Turning to UniProt Q9UL40 and related entries, the NP40-soluble protein abundance reads like this: (concentration: 1mM) 1.03 ± 0.071; (concentration: 2mM) 1.05 ± 0.036; (concentration: 4mM) 1.13 ± 0.06; (concentration: 6mM) 1.18 ± 0.11; (concentration: 8mM) 1.23 ± 0.12; (concentration: 10mM) 1.24 ± 0.13.

In the case of UniProt Q9UJX2 and related entries, the NP40-soluble protein abundance (concentration: 1mM) turned out to be 1.07 ± 0.079; the NP40-soluble protein abundance (concentration: 2mM) came to 1.03 ± 0.045; the NP40-soluble protein abundance (concentration: 4mM) stood at 1.03 ± 0.014; the NP40-soluble protein abundance (concentration: 6mM) came to 0.97 ± 0.061; the NP40-soluble protein abundance (concentration: 8mM) worked out at 1.05 ± 0.081; the NP40-soluble protein abundance (concentration: 10mM) is 1.02 ± 0.068.

In the case of UniProt Q9UNZ2 and related entries, the NP40-soluble protein abundance is, setting by setting: (concentration: 1mM) 0.946 ± 0.043; (concentration: 2mM) 0.96 ± 0.016; (concentration: 4mM) 0.936 ± 0.019; (concentration: 6mM) 0.955 ± 0.021; (concentration: 8mM) 0.922 ± 0.013; (concentration: 10mM) 0.929 ± 0.011.

TRAPPC4 (UniProt Q9Y296): the NP40-soluble protein abundance is, setting by setting: (concentration: 1mM) 1.01 ± 0.089; (concentration: 2mM) 0.976 ± 0.076; (concentration: 4mM) 0.978 ± 0.055; (concentration: 6mM) 0.904 ± 0.07; (concentration: 8mM) 0.951 ± 0.039; (concentration: 10mM) 0.966 ± 0.048.

As for SWAP70 (UniProt Q9UH65), the NP40-soluble protein abundance (concentration: 1mM) is 0.956 ± 0.027; the NP40-soluble protein abundance (concentration: 2mM) was found to be 0.9447 ± 0.0087; the NP40-soluble protein abundance (concentration: 4mM) came out at 0.93 ± 0.01; the NP40-soluble protein abundance (concentration: 6mM) is 0.972 ± 0.014; the NP40-soluble protein abundance (concentration: 8mM) was 0.917 ± 0.015; the NP40-soluble protein abundance (concentration: 10mM) was determined as 0.917 ± 0.032.

In the case of ENOPH1 (UniProt Q9UHY7), the NP40-soluble protein abundance reads like this: (concentration: 1mM) 1.01 ± 0.019; (concentration: 2mM) 1.03 ± 0.058; (concentration: 4mM) 0.994 ± 0.047; (concentration: 6mM) 1.01 ± 0.083; (concentration: 8mM) 0.995 ± 0.073; (concentration: 10mM) 1 ± 0.074.

Take UniProt Q9UHC7 and related entries: the NP40-soluble protein abundance (concentration: 1mM) was 0.929 ± 0.067; the NP40-soluble protein abundance (concentration: 2mM) turned out to be 0.958 ± 0.084; the NP40-soluble protein abundance (concentration: 4mM) is 0.928 ± 0.035; the NP40-soluble protein abundance (concentration: 6mM) was found to be 0.985 ± 0.14; the NP40-soluble protein abundance (concentration: 8mM) worked out at 0.911 ± 0.066; the NP40-soluble protein abundance (concentration: 10mM) is 0.954 ± 0.068.
